Values from PubChem BioAssay AID652259 (Drosophila RNAi Screening Center, 2013)
Assay: 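Genome-wide hunt for genes that control Wingless pathway activity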 (primary screen). Cells: Drosophila clone 8 imaginal disc epithelial cells. Reagents: long dsRNA against Drosophila genes. Treatment: pathway stimulated by co-transfected Wingless expression plasmid. Detection: 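Dual luciferase reads per well after Wingless plasmid stimulation: reporter firefly light and Renilla control light; activity is firefly divided by Renilla, a ratio not deposited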. Reading the numbers: firefly reporter light: higher = more Wg reporter light, before normalisation; Renilla control light: higher = more transfected or surviving cells. Hit rule: 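Strong candidates differ from their plate mean by at least two out of four per-plate statistical tests; weak candidates meet just one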. Meaning of the calls: active = candidate regulator (raises or lowers reporter); inactive = not a candidate.
The deposit covers about 22,000 reagents; shown is an unselected part of those that have a named target and a result. In the full data, 233 (1.1%) got an active call. 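Light values are raw, unnormalised plate reads; the ratio scores behind the reporter calls were not deposited.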 A number with no mark means an inactive call. Not given: the amount of reagent, the time to read-out, the dose of the treatment.

no.	Gene	dsRNA	reporter change call, replicate 1	firefly reporter light, replicate 1	firefly reporter light, replicate 2	Renilla control light, replicate 1	Renilla control light, replicate 2
1	CG34236	DRSC05435		20258		14160	
2	CG8960	DRSC08612		17364		4272	
3	Oseg2 (Outer segment 2)	DRSC08343		5285		2583	
4	CG42812	DRSC15368		15334		12832	
5	CG34175	DRSC00424		6357	13417	1651	4230
6	Cog1 (Component of oligomeric golgi complex 1)	DRSC15661		8145		2633	
7	TfIIA-L (Transcription factor IIA L)	DRSC16882	Wg reporter activity lowered	741	2347	790	1526
8	Sema1b (Semaphorin 1b)	DRSC07550		19920		6263	
9	CG11756	DRSC19424		19273		9083	
10	Jon66Ci (Jonah 66Ci)	DRSC10772		753	6464	584	2912
11	Mmp1 (Matrix metalloproteinase 1)	DRSC04493		2407	6860	533	1937
12	CG43088	DRSC19055		6599		1776	
13	CG43088	DRSC21407		7.32e5	7.00e5	3.35e5	3.06e5
14	tum (tumbleweed)	DRSC07575		6560		2106	

Next part; the last 2 above are carried over.
no.	Gene	dsRNA	reporter change call, replicate 1	firefly reporter light, replicate 1	firefly reporter light, replicate 2	Renilla control light, replicate 1	Renilla control light, replicate 2
13	CG43088	DRSC21407		7.32e5	7.00e5	3.35e5	3.06e5
14	tum (tumbleweed)	DRSC07575		6560		2106	
15	CG34460	DRSC06974		6408		2395	
16	HnRNP-K (Heterogeneous nuclear ribonucleoprotein K)	DRSC07585		19960		8183	
17	HnRNP-K (Heterogeneous nuclear ribonucleoprotein K)	DRSC22734		5.61e5	4.35e5	1.50e5	1.25e5
18	CG15822	DRSC08482		5961		2873	
19	CG15822	DRSC08483		4908		2248	
20	MTPAP (mitochondrial poly(A) polymerase)	DRSC18585		23289		21029	
21	Hecw (Hecw ubiquitin protein ligase)	DRSC18261		18428		6973	
22	Hecw (Hecw ubiquitin protein ligase)	DRSC18276		19689		8769	
23	dUTPase (Deoxyuridine triphosphatase)	DRSC01998		20928		5141	
24	CG14968	DRSC08427		5257		2525	
25	GstE5 (Glutathione S transferase E5)	DRSC06675		9123		3363	
26	CG7294	DRSC03041		2962	7532	1815	3798
27	CG31191	DRSC13455		5046		2476	
28	CG31191	DRSC15214		18652		3042	
29	CG31191	DRSC15215		13925		2120	
